From PMC8164027 come the findings set out here.

By UniProt entry, the sequences of proteins in these tests, tags left out.
UniProt P35169: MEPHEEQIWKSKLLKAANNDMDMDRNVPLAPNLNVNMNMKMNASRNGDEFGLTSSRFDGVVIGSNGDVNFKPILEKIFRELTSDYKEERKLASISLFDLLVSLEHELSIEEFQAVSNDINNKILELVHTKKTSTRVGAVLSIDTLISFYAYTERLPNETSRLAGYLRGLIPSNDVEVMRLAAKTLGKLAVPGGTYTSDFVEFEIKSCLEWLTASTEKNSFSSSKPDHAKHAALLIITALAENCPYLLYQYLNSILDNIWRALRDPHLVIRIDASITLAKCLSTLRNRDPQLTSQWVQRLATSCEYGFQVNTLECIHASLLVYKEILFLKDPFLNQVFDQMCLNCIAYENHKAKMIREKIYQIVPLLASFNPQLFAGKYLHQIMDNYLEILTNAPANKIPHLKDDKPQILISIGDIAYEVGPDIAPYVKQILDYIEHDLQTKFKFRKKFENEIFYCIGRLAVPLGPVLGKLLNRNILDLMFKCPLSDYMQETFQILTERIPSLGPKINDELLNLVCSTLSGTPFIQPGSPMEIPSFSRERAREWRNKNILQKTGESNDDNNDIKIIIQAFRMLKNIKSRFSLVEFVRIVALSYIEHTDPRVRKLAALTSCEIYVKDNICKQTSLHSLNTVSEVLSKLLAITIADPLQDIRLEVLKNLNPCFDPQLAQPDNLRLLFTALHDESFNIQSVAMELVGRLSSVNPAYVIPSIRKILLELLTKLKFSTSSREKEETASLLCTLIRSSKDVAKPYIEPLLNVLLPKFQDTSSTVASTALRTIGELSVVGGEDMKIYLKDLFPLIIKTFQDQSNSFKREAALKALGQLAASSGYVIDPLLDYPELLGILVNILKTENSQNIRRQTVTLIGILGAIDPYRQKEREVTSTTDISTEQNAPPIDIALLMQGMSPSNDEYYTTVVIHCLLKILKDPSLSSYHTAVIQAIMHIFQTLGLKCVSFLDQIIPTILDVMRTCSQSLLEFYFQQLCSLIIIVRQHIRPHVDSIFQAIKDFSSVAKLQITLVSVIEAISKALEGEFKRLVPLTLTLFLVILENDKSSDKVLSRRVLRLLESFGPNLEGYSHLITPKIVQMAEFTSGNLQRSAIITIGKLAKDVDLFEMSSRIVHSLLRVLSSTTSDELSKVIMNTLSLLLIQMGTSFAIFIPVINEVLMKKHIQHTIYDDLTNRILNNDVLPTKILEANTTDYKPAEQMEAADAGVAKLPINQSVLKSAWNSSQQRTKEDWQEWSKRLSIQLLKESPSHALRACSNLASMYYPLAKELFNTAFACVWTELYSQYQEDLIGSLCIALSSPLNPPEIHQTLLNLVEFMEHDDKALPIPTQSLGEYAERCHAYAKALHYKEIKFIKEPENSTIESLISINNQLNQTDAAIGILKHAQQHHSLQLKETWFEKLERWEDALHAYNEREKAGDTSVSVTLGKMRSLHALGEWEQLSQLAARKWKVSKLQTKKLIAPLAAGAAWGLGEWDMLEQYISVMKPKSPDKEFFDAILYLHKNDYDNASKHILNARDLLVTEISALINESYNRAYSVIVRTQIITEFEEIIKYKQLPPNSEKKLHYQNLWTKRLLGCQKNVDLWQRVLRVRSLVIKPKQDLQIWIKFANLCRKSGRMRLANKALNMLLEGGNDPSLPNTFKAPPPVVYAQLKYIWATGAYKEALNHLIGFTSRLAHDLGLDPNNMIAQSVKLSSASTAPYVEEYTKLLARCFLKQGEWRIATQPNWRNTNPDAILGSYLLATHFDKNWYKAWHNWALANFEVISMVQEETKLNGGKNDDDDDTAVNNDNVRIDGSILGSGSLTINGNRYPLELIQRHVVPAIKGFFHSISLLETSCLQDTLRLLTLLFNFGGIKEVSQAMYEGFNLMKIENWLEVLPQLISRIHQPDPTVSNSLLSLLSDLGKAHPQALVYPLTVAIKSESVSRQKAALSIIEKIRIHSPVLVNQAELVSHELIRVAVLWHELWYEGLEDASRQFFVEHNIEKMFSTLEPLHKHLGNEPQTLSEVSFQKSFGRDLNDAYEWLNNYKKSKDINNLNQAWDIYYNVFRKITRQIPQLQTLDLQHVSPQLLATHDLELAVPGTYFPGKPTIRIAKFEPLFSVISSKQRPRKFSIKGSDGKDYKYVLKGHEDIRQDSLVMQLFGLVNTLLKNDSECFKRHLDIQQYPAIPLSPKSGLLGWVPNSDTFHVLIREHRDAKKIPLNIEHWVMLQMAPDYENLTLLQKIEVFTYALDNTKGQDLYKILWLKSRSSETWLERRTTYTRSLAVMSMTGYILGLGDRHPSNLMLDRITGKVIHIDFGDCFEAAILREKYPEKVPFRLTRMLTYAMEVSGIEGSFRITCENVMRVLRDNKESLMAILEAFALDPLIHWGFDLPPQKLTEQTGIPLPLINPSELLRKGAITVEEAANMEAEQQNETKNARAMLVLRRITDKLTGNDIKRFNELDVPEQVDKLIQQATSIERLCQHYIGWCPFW
UniProt P22336: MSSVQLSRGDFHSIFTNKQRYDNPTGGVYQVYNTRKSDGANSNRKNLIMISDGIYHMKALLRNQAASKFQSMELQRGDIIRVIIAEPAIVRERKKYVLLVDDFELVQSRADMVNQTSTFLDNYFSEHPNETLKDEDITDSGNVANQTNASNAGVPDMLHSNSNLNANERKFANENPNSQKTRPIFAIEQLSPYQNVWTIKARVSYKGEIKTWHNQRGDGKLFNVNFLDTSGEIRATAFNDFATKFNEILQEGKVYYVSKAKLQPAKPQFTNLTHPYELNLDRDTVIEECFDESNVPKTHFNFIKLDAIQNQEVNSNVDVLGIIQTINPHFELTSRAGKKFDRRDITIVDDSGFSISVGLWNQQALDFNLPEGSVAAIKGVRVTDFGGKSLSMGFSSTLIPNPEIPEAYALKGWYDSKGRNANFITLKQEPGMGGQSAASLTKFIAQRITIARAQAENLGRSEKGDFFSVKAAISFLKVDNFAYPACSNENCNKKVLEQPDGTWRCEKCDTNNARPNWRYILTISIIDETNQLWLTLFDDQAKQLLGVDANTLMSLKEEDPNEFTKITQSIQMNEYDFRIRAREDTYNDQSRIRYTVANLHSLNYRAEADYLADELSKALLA
UniProt P40457: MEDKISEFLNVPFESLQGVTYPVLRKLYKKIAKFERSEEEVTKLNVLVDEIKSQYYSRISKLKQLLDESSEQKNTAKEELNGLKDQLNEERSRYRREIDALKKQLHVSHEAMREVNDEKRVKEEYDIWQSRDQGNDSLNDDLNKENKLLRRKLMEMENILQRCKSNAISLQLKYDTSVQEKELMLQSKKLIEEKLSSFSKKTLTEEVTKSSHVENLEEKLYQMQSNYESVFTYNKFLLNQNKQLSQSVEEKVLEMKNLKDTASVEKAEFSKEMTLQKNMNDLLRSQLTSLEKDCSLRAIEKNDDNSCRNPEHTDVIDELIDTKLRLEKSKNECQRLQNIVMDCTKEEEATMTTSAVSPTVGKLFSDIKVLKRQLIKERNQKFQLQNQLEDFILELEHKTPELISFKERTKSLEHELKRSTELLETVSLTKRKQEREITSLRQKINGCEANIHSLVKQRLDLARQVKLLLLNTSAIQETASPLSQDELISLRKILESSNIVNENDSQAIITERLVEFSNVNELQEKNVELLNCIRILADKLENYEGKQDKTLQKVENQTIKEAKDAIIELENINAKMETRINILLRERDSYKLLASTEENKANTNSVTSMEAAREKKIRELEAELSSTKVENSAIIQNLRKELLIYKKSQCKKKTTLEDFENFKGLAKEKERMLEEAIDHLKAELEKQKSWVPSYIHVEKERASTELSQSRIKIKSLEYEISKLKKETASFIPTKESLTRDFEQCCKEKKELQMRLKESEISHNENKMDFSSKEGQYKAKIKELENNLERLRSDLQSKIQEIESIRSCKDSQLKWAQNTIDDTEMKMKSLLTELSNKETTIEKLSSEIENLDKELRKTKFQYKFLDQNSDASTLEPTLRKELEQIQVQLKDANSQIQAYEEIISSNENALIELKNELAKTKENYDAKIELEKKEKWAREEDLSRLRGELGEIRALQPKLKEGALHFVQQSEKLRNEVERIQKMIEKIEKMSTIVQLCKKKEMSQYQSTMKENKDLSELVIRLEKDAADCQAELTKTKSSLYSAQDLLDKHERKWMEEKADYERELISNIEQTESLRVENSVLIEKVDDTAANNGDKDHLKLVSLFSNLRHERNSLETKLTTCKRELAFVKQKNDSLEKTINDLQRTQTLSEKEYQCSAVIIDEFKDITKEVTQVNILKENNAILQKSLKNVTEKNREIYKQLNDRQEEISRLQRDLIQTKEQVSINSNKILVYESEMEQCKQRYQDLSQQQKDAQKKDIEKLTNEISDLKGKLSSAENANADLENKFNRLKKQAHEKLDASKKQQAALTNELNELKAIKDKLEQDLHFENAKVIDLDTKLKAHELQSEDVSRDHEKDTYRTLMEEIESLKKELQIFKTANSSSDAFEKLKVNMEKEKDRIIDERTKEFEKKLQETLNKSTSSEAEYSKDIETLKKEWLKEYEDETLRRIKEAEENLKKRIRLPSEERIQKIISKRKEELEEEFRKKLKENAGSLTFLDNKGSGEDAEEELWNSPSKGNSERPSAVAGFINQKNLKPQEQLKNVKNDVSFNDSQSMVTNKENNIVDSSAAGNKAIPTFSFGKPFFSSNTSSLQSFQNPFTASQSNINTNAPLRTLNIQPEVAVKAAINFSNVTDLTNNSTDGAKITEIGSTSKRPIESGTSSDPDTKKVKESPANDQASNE
UniProt Q02821: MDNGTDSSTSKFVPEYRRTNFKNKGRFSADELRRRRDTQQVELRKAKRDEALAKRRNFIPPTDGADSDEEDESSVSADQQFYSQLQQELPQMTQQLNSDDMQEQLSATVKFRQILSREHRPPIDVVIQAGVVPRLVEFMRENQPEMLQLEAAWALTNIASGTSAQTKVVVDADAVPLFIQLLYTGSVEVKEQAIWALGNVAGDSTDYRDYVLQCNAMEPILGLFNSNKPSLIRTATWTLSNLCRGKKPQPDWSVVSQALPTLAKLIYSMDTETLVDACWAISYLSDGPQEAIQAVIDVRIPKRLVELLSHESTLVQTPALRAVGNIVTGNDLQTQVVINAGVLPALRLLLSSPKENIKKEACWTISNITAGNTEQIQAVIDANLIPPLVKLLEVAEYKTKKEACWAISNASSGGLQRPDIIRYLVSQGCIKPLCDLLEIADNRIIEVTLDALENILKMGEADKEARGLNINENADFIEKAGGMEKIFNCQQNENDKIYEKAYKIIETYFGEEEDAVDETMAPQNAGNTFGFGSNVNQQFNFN

The labels stand for the following.
T1: N-terminal Myc-tagged Tsa1 with a mutation in its resolving cysteine residue (Tsa1-C171S) (S. cerevisiae) (UniProt P34760)
T1 sequence: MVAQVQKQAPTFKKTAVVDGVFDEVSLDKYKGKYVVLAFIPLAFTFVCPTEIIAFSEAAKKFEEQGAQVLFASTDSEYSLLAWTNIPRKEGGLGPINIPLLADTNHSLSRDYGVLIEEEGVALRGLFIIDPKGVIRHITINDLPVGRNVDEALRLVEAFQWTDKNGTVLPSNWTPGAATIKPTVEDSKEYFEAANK

B1: Hxk1 (protein, UniProt P04806 1-485)
chain: MVHLGPKKPQARKGSMADVPKELMDEIHQLEDMFTVDSETLRKVVKHFIDELNKGLTKKGGNIPMIPGWVMEFPTGKESGNYLAIDLGGTNLRVVLVKLSGNHTFDTTQSKYKLPHDMRTTKHQEELWSFIADSLKDFMVEQELLNTKDTLPLGFTFSYPASQNKINEGILQRWTKGFDIPNVEGHDVVPLLQNEISKRELPIEIVALINDTVGTLIASYYTDPETKMGVIFGTGVNGAFYDVVSDIEKLEGKLADDIPSNSPMAINCEYGSFDNEHLVLPRTKYDVAVDEQSPRPGQQAFEKMTSGYYLGELLRLVLLELNEKGLMLKDQDLSKLKQPYIMDTSYPARIEDDPFENLEDTDDIFQKDFGVKTTLPERKLIRRLCELIGTRAARLAVCGIAAICQKRGYKTGHIAADGSVYNKYPGFKEAAAKGLRDIYGWTGDASKDPITIVPAEDGSGAGAAVIAALSEKRIAEGKSLGIIGA
B2: Sub2 (protein, UniProt Q07478 1-446)
chain: MSHEGEEDLLEYSDNEQEIQIDASKAAEAGETGAATSATEGDNNNNTAAGDKKGSYVGIHSTGFKDFLLKPELSRAIIDCGFEHPSEVQQHTIPQSIHGTDVLCQAKSGLGKTAVFVLSTLQQLDPVPGEVAVVVICNARELAYQIRNEYLRFSKYMPDVKTAVFYGGTPISKDAELLKNKDTAPHIVVATPGRLKALVREKYIDLSHVKNFVIDECDKVLEELDMRRDVQEIFRATPRDKQVMMFSATLSQEIRPICRRFLQNPLEIFVDDEAKLTLHGLQQYYIKLEEREKNRKLAQLLDDLEFNQVIIFVKSTTRANELTKLLNASNFPAITVHGHMKQEERIARYKAFKDFEKRICVSTDVFGRGIDIERINLAINYDLTNEADQYLHRVGRAGRFGTKGLAISFVSSKEDEEVLAKIQERFDVKIAEFPEEGIDPSTYLNN
B3: Ede1 (protein, UniProt P34216 1-1381)
chain: MASITFRTPLSSQEQAFYNQKFHQLDTEDLGVVTGEAVRPLFASSGLPGQLLSQVWATVDIDNKGFLNLNEFSAALRMIAQLQNAPNQPISAALYESTPTQLASFSINQNPAPMQSGSATGNTNNTDIPALSSNDIAKFSQLFDRTAKGAQTVAGDKAKDIFLKARLPNQTLGEIWALCDRDASGVLDKSEFIMAMYLIQLCMSHHPSMNTPPAVLPTQLWDSIRLEPVVVNQPNRTTPLSANSTGVSSLTRHSTISRLSTGAFSNAASDWSLSFEKKQQFDAIFDSLDKQHAGSLSSAVLVPFFLSSRLNQETLATIWDLADIHNNAEFTKLEFAIAMFLIQKKNAGVELPDVIPNELLQSPALGLYPPNPLPQQQSAPQIAIPSRASKPSLQDMPHQVSAPAVNTQPTVPQVLPQNSNNGSLNDLLALNPSFSSPSPTKAQTVVQNNTNNSFSYDNNNGQATLQQQQPQQPPPLTHSSSGLKKFTPTSNFGQSIIKEEPEEQEQLRESSDTFSAQPPPVPKHASSPVKRTASTTLPQVPNFSVFSMPAGAATSAATGAAVGAAVGAAALGASAFSRSSNNAFKNQDLFADGEASAQLSNATTEMANLSNQVNSLSKQASITNDKKSRATQELKRVTEMKNSIQIKLNNLRSTHDQNVKQTEQLEAQVLQVNKENETLAQQLAVSEANYHAAESKLNELTTDLQESQTKNAELKEQITNLNSMTASLQSQLNEKQQQVKQERSMVDVNSKQLELNQVTVANLQKEIDGLGEKISVYLTKQKELNDYQKTVEEQHAQLQAKYQDLSNKDTDLTDREKQLEERNRQIEEQENLYHQHVSKLQEMFDDLSQRKASFEKADQELKERNIEYANNVRELSERQMNLAMGQLPEDAKDIIAKSASNTDTTTKEATSRGNVHEDTVSKFVETTVENSNLNVNRVKDDEEKTERTESDVFDRDVPTLGSQSDSENANTNNGTQSGNETANPNLTETLSDRFDGDLNEYGIPRSQSLTSSVANNAPQSVRDDVELPETLEERDTINNTANRDNTGNLSHIPGEWEATPATASTDVLSNETTEVIEDGSTTKRANSNEDGESVSSIQESPKISAQPKAKTINEEFPPIQELHIDESDSSSSDDDEFEDTREIPSATVKTLQTPYNAQPTSSLEIHTEQVIKYPAPGTSPSHNEGNSKKASTNSILPVKDEFDDEFAGLEQAAVEEDNGADSESEFENVANAGSMEQFETIDHKDLDDELQMNAFTGTLTSSSNPTIPKPQVQQQSTSDPAQVSNDEWDEIFAGFGNSKAEPTKVATPSIPQQPIPLKNDPIVDASLSKGPIVNRGVATTPKSLAVEELSGMGFTEEEAHNALEKCNWDLEAATNFLLDSA
B4: Bud2 (protein, UniProt P33314 1-1104)
chain: MSSNNEPAQSRTSYFKLNEFLSNVKHYKNTFKGEIQWCNNLSLNDWKTHYLQITSTGALTHSIDELTADSTNIQPIIKHLQQCRIEIIKDKHSSFKDINANCNFIIQVNTSGKDNKVYLRVKSWSDFKKLLTCLIWWSSMKTNGIFNKFQVSRPLEFKSKKMAKPESLLVYKLNVFGPIVKNIVLPPATNILESPDIINNDDNSVGWFSAMGVLKSNGMLDLLLQSDGSLIYSLNISQLLRSEIRILDSSVLQSENSLFLGELPLLRSQLGLEKFRIENIASAATNSSDISQEIIVEFPLRIDLEDCFIALQSFARSEYLSITGSDKSNDMKISNSFKISILEANFQSINLNDKNNTPWSIFTDITAWGHTWARTSMVSNSSNPFWREEFQFNELLRLTNSYLEIKQLFHDLNNKKRLRLIGKIKITQEIINDTRYNKETRLPIMDVDNKNFQIGTICIKISSNLNFILPSTNFVKLEKLLMNANLSMVSNLIYKSSSSMENDNKLTQTSIIFLDIFQSLSRIEEWFHVLIDKELAKIDGTVSRINQKNLDSKHVFNSLFRGNSILTKSIEQYFFRVGNEYLSKALSAILKEIIESNKSCELDPARVKEKDEVKKRKIIADNYKRLYSWVTKIWKRLYATSNDLPIEIRNVLKIFRQKLEIICIDDTLQIILNGISGLLFLRFFCPVILNPKLFKYVSQNLNETARRNLTLISKVLLNLSTLTQFANKEPWLMKMNNFIDKRHNDLLDYIDKMTQKKLDFNSKILNLSSTISRPKLAIEQTMLDDLPQIPYLLDKNLRETEFVNLIVNFSQEDMTKMEKYNHMDNGGKGELIEEEGLLSGSSLNLSVDKKDLDSPIEVKPEIGELEFEKITENNTEIFGDDLMNLLKSDDVGSRSRDLDNGANSGIKFNSIIPKAEEEKHAMKELEQESCLLYNRINHIRKRLSGYECASSTLFEDKKYSISLSHKIFYEEIKEGKEIVLKLLNKPTNENSSARLQKFFTKGVSSKSNNTVGDSYCKFLTIDVSDENPKSSNKTSVHGTSSENGAKDDYLTLPNSQGKGNLGNRFSPTKLSRIMRKPPNADVPKEQNSRKLTRWFKKKKETGGS
B5: Dak1 (protein, UniProt P54838 1-584)
chain: MSAKSFEVTDPVNSSLKGFALANPSITLVPEEKILFRKTDSDKIALISGGGSGHEPTHAGFIGKGMLSGAVVGEIFASPSTKQILNAIRLVNENASGVLLIVKNYTGDVLHFGLSAERARALGINCRVAVIGDDVAVGREKGGMVGRRALAGTVLVHKIVGAFAEEYSSKYGLDGTAKVAKIINDNLVTIGSSLDHCKVPGRKFESELNEKQMELGMGIHNEPGVKVLDPIPSTEDLISKYMLPKLLDPNDKDRAFVKFDEDDEVVLLVNNLGGVSNFVISSITSKTTDFLKENYNITPVQTIAGTLMTSFNGNGFSITLLNATKATKALQSDFEEIKSVLDLLNAFTNAPGWPIADFEKTSAPSVNDDLLHNEVTAKAVGTYDFDKFAEWMKSGAEQVIKSEPHITELDNQVGDGDCGYTLVAGVKGITENLDKLSKDSLSQAVAQISDFIEGSMGGTSGGLYSILLSGFSHGLIQVCKSKDEPVTKEIVAKSLGIALDTLYKYTKARKGSSTMIDALEPFVKEFTASKDFNKAVKAAEEGAKSTATFEAKFGRASYVGDSSQVEDPGAVGLCEFLKGVQSAL
B6: Zta1 (protein, UniProt P38230 1-334)
chain: MKCTIPEQQKVILIDEIGGYDVIKYEDYPVPSISEEELLIKNKYTGVNYIESYFRKGIYPCEKPYVLGREASGTVVAKGKGVTNFEVGDQVAYISNSTFAQYSKISSQGPVMKLPKGTSDEELKLYAAGLLQVLTALSFTNEAYHVKKGDYVLLFAAAGGVGLILNQLLKMKGAHTIAVASTDEKLKIAKEYGAEYLINASKEDILRQVLKFTNGKGVDASFDSVGKDTFEISLAALKRKGVFVSFGNASGLIPPFSITRLSPKNITLVRPQLYGYIADPEEWKYYSDEFFGLVNSKKLNIKIYKTYPLRDYRTAAADIESRKTVGKLVLEIPQ
B7: YMR102C (protein, UniProt Q03177 1-834)
chain: MTNMAEDKTSISKVHSEFSNSSNTTGSEEESRSHQESFDGESSSGESKSKSKLNLEYSADIEPLKFRMTKTNNTNDKLKYSNNGNATDSFMRLKEHLQRGNTLNSNLRVNEFYPFNSIDTEQFENYLREPKYIKMLKRRKNLKQFRRLFLAQELMAYEGETVTSTSKSSEPTSKAIWSTKFSRDGKFMATGSKDGKIRIWKVIGSPVERAELDSSAESNKEARAKSMRIKQQVSSLNNPKEKQFLDSATEKYEEKEKLLNLYAPVFHPTPLRLYKEHVQDVLDINWSKNNFILSASMDKTVKLWHPDRKNSLKTFIHPDFVTCVEFHPTDDRFFISGCLDHKCRLWSILDDEVSFEYDCQDLITSVTLSPEEGKYTIIGTFNGYVHILMTRGLTPVSSFHVADRQTQEQNAHVMVTETDSKIRHGPRVTGLQAFRSQLDNSFRLVVTSNDSRIRIFDLEQRKLLEVLKGFHSGSSQHKAQLSIWHGQPIVVNSSDDHWVYGWRLKSSDRENDQDEPKRKPKGLARSGSLRSIFSKSMSRSSSQNNEEKPHHHLKLTNLLPLPHHSNDHYIKNTDYISFHAHNAPVTCVSIAPPETSKTLSLSNDVICELSLEFFQTSDSFDVLSRSNDDGIMSDVESSLGYNSKPGSISNASATSAIPDVVDAIGTILISTDNVGTIRVFRADMPSVIRKRVLLKLEEYNREVRRRFNSSDSLHSLSRSFNSRAKSNLAGQPAAAYTNTGKGYATGRGYSNICPKSSTSLKTLGSNAQPRTPRESMSSIFSNAHGPTTPTSAMNLPIRCNVCNGSRFEAFSGANDQQDRNYYCVDCGTVVNNFR

No constants are given. Whether binding was seen depends on the method and setting. In cells and extracts the contact can be indirect. Here binding means that the protein was enriched with, or labelled near, the bait; the list need not be complete. Sequences can lack the tags named with a protein.

For this test, the target named is T1, N-terminal Myc-tagged Tsa1 with a mutation in its resolving cysteine residue (Tsa1-C171S) (S. cerevisiae). The test is described as follows: affinity purification with mass spectrometry; Myc-Tsa1-C171S precipitated with anti-myc affinity beads from lysates of a tsa1 mutant, cells untreated or treated with hydrogen peroxide or AZC for 2 h; 4 h at 4 °C; washes in IPP50 buffer (10 mM Tris pH 8.0, 50 mM NaCl); vector-only control; hits in two of three repeats.
As to Tor1 (from UniProt P35169 1-2470), the binding result was “binds”. With “Lys21 (S. cerevisiae (endogenous in W303))” the entry was “binds”; with Rfa1 (from UniProt P22336 1-621), “binds”; with Mlp2 (from UniProt P40457 1-1679), “binds”. Then Srp1 (from UniProt Q02821 1-542), with “binds”; and B1, with “binds”; and B2, with “binds”.

Take B3: the binding entry was “binds”. As for B4, the binding entry was “binds”. Then B5, with “binds”; and B6, with “binds”.

Take B7: the binding entry is “binds”.
